Assay results reported in the supplement of paper PMC4862054.
Most entries show no effect beyond the scatter of the controls.

Legend:
Test in all cases: normalised response (% of control), CellTox Green; higher = less cell death (100 = DMSO, 0 = benzethonium chloride kill control)
Conditions in all cases: incubation time: 72 h
CAL-120 = system: CAL-120
Procedure: (§1)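 DSRT, 72 h incubation, CellTox Green / CellTiter-Glo readout. Signal is normalised to DMSO and benzethonium chloride controls. Value is the normalised response at the lowest tested concentration.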

DU-4475 = system: DU-4475
Procedure: as §1

CAL-51 = system: CAL-51
Procedure: as §1

Hs578T = system: Hs578T
Procedure: as §1

BT-549 = system: BT-549
Procedure: as §1

HCC1937 = system: HCC1937
Procedure: as §1

MDA-MB-453 = system: MDA-MB-453
Procedure: as §1

MFM-223 = system: MFM-223
Procedure: as §1

HCC1143 = system: HCC1143
Procedure: as §1

MCF-10A = system: MCF-10A
Procedure: as §1

BT-474 = system: BT-474
Procedure: as §1

MDA-MB-468 = system: MDA-MB-468
Procedure: as §1

CAL-148 = system: CAL-148
Procedure: as §1

HCC1599 = system: HCC1599
Procedure: as §1

MDA-MB-231 = system: MDA-MB-231
Procedure: as §1

HDQ-P1 = system: HDQ-P1
Procedure: as §1

CAL-85-1 = system: CAL-85-1
Procedure: as §1

MDA-MB-436 = system: MDA-MB-436
Procedure: as §1

## O=C(O)CCCc1ccc(N(CCCl)CCCl)cc1 [Chlorambucil] (1 nM)
CAL-120
  normalised response: 100%
DU-4475
  normalised response: 103%
CAL-51
  normalised response: 102%
Hs578T
  normalised response: 103%
BT-549
  normalised response: 93.8%
HCC1937
  normalised response: 105%
MDA-MB-453
  normalised response: 106%
MFM-223
  normalised response: 103%
HCC1143
  normalised response: 124%
MCF-10A
  normalised response: 102%
BT-474
  normalised response: 99.4%
MDA-MB-468
  normalised response: 71.5%
CAL-148
  normalised response: 104%
HCC1599
  normalised response: 109%
MDA-MB-231
  normalised response: 97.3%
HDQ-P1
  normalised response: 102%
CAL-85-1
  normalised response: 105%
MDA-MB-436
  normalised response: 102%

## Nc1nc(Cl)nc2c1ncn2[C@H]1C[C@H](O)[C@@H](CO)O1 [Cladribine] (0.1 nM)
CAL-120
  normalised response: 102%
DU-4475
  normalised response: 105%
CAL-51
  normalised response: 107%
Hs578T
  normalised response: 111%
BT-549
  normalised response: 97.6%
HCC1937
  normalised response: 103%
MDA-MB-453
  normalised response: 101%
MFM-223
  normalised response: 87.8%
HCC1143
  normalised response: 99.3%
MCF-10A
  normalised response: 97.5%
BT-474
  normalised response: 99.8%
MDA-MB-468
  normalised response: 106%
CAL-148
  normalised response: 103%
HCC1599
  normalised response: 107%
MDA-MB-231
  normalised response: 113%
HDQ-P1
  normalised response: 104%
CAL-85-1
  normalised response: 104%
MDA-MB-436
  normalised response: 90.5%

## COc1cc2ncnc(Nc3ccc(F)c(Cl)c3)c2cc1NC(=O)/C=C/CN1CCCCC1 [Dacomitinib] (0.1 nM)
CAL-120
  normalised response: 73%
DU-4475
  normalised response: 102%
CAL-51
  normalised response: 72.3%
Hs578T
  normalised response: 94.1%
BT-549
  normalised response: 79%
HCC1937
  normalised response: 92.7%
MDA-MB-453
  normalised response: 95.2%
MFM-223
  normalised response: 101%
HCC1143
  normalised response: 111%
MCF-10A
  normalised response: 86.5%
BT-474
  normalised response: 78.7%
MDA-MB-468
  normalised response: 75.5%
CAL-148
  normalised response: 63.3%
HCC1599
  normalised response: 107%
MDA-MB-231
  normalised response: 111%
HDQ-P1
  normalised response: 77.4%
CAL-85-1
  normalised response: 78.4%
MDA-MB-436
  normalised response: 88.6%

## Cc1c(CN2CCN(C(=O)[C@H](C)O)CC2)sc2c(N3CCOCC3)nc(-c3cnc(N)nc3)nc12 [GDC-0980] (1 nM)
CAL-120
  normalised response: 100%
DU-4475
  normalised response: 102%
CAL-51
  normalised response: 111%
Hs578T
  normalised response: 63%
BT-549
  normalised response: 94.7%
HCC1937
  normalised response: 110%
MDA-MB-453
  normalised response: 104%
MFM-223
  normalised response: 101%
HCC1143
  normalised response: 124%
MCF-10A
  normalised response: 107%
BT-474
  normalised response: 102%
MDA-MB-468
  normalised response: 79.2%
CAL-148
  normalised response: 94.2%
HCC1599
  normalised response: 97.9%
MDA-MB-231
  normalised response: 107%
HDQ-P1
  normalised response: 86%
CAL-85-1
  normalised response: 99.6%
MDA-MB-436
  normalised response: 84.6%

## Nc1cccc2c1CN(C1CCC(=O)NC1=O)C2=O (configuration not stated) [Lenalidomide] (1 nM)
CAL-120
  normalised response: 102%
DU-4475
  normalised response: 99.4%
CAL-51
  normalised response: 116%
Hs578T
  normalised response: 110%
BT-549
  normalised response: 101%
MDA-MB-453
  normalised response: 96.1%
MFM-223
  normalised response: 86.5%
HCC1143
  normalised response: 117%
MCF-10A
  normalised response: 90.8%
BT-474
  normalised response: 103%
MDA-MB-468
  normalised response: 83%
CAL-148
  normalised response: 94.9%
HCC1599
  normalised response: 101%
MDA-MB-231
  normalised response: 106%
HDQ-P1
  normalised response: 105%
CAL-85-1
  normalised response: 96.4%
MDA-MB-436
  normalised response: 81.4%

## O=C(O)CC[C@H]1CC[C@@](c2cc(F)ccc2F)(S(=O)(=O)c2ccc(Cl)cc2)CC1 [MK-0752] (0.1 nM)
CAL-120
  normalised response: 94.1%
DU-4475
  normalised response: 108%
CAL-51
  normalised response: 101%
BT-549
  normalised response: 90%
HCC1937
  normalised response: 103%
MDA-MB-453
  normalised response: 113%
MFM-223
  normalised response: 98.9%
HCC1143
  normalised response: 104%
MCF-10A
  normalised response: 93.3%
BT-474
  normalised response: 102%
MDA-MB-468
  normalised response: 98.9%
CAL-148
  normalised response: 52%
HCC1599
  normalised response: 112%
MDA-MB-231
  normalised response: 109%
HDQ-P1
  normalised response: 106%
CAL-85-1
  normalised response: 81.8%
MDA-MB-436
  normalised response: 77.9%

## CCc1c(C(=O)C(N)=O)c2c(OCC(=O)O)cccc2n1Cc1ccccc1 [Varespladib] (1 nM)
CAL-120
  normalised response: 104%
DU-4475
  normalised response: 105%
CAL-51
  normalised response: 112%
Hs578T
  normalised response: 114%
BT-549
  normalised response: 91%
HCC1937
  normalised response: 112%
MDA-MB-453
  normalised response: 98.4%
MFM-223
  normalised response: 51.9%
HCC1143
  normalised response: 122%
MCF-10A
  normalised response: 100%
BT-474
  normalised response: 99.4%
MDA-MB-468
  normalised response: 66%
HCC1599
  normalised response: 95.3%
MDA-MB-231
  normalised response: 107%
HDQ-P1
  normalised response: 75.1%
CAL-85-1
  normalised response: 99.1%
MDA-MB-436
  normalised response: 98.8%

## CC[C@]1(O)C[C@@H]2CN(CCc3c([nH]c4ccccc34)[C@@](C(=O)OC)(c3cc4c(cc3OC)N(C)[C@H]3[C@@](O)(C(=O)OC)[C@H](OC(C)=O)[C@]5(CC)C=CCN6CC[C@]43[C@@H]65)C2)C1 [Vinblastine] (0.1 nM)
CAL-120
  normalised response: 103%
DU-4475
  normalised response: 102%
CAL-51
  normalised response: 117%
Hs578T
  normalised response: 108%
BT-549
  normalised response: 100%
HCC1937
  normalised response: 109%
MDA-MB-453
  normalised response: 106%
MFM-223
  normalised response: 102%
MCF-10A
  normalised response: 104%
BT-474
  normalised response: 99.9%
MDA-MB-468
  normalised response: 98.6%
CAL-148
  normalised response: 57.9%
HCC1599
  normalised response: 102%
MDA-MB-231
  normalised response: 107%
HDQ-P1
  normalised response: 92.6%
CAL-85-1
  normalised response: 97.3%
MDA-MB-436
  normalised response: 63.3%

## COCC[n+]1c2c(n(Cc3cnccn3)c1C)C(=O)c1ccccc1C2=O [YM155] (1 nM)
CAL-120
  normalised response: 97.7%
DU-4475
  normalised response: 96%
CAL-51
  normalised response: 114%
Hs578T
  normalised response: 94.9%
BT-549
  normalised response: 97.9%
HCC1937
  normalised response: 60.8%
MDA-MB-453
  normalised response: 99.2%
HCC1143
  normalised response: 90.6%
MCF-10A
  normalised response: 90.4%
BT-474
  normalised response: 100%
MDA-MB-468
  normalised response: 104%
CAL-148
  normalised response: 104%
HCC1599
  normalised response: 84.4%
MDA-MB-231
  normalised response: 95.6%
HDQ-P1
  normalised response: 101%
CAL-85-1
  normalised response: 109%
MDA-MB-436
  normalised response: 86.7%
